Experimental data: PubChem BioAssay AID1159578 (Peter MacCallum Cancer Centre, 2015)

- Purpose: 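Knock-downs that alter how fast lymphatic endothelial cells migrate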 (primary screen)
- Cell system: human lymphatic endothelial cells
- Knock-down reagent: siRNA pool against human genes, 40 nM
- Duration: 48 h after transfection
- Measured: 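Cells stained with dye and imaged after a scratch; covered wound area and nuclei counted, duplicates averaged, migration set against mock wells and turned into a robust z-score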
- Scale: migration robust z-score: higher = faster migration into the scratch; nuclei per well: higher = more cells in the well
- Active means: 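Migration changed when robust z exceeds 2 or falls below -2 and mean nuclei number is at least 3300; otherwise not called changed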
- Calls: active = migration changed; inactive = no migration change, or too few cells
The deposit covers about 18,000 reagents; shown is an unselected part. About 1,030 of them (5.7%) count as active. 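Inactive calls also include pools with fewer than 3300 nuclei, whose migration was not assessed.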 The raw values are shown without normalisation. Not all columns of the deposit are shown.

| gene symbol | migration robust z-score | nuclei per well, duplicate mean | activity call |
| --- | --- | --- | --- |
| ALG14 (GeneID 199857) | 1 | 5113 | inactive |
| SS18L1 (GeneID 26039) | -0.6 | 5880 | inactive |
| DCAF10 (GeneID 79269) | 0.92 | 7302 | inactive |
| OLFM4 (GeneID 10562) | -0.84 | 4038 | inactive |
| IQSEC2 (GeneID 23096) | 1.41 | 5136 | inactive |
| CFAP61 (GeneID 26074) | 0.92 | 6173 | inactive |
| IFT74 (GeneID 80173) | 0.99 | 5644 | inactive |
| PRAC1 (GeneID 84366) | 0.38 | 5520 | inactive |

Look-ups from the list:
OLFM4 (GeneID 10562), activity call → inactive
ALG14 (GeneID 199857), nuclei per well, duplicate mean = 5113

Next results follow.
| gene symbol | migration robust z-score | nuclei per well, duplicate mean | activity call |
| --- | --- | --- | --- |
| ZNF273 (GeneID 10793) | 2.25 | 6091 | active |
| COL6A3 (GeneID 1293) | 0.3 | 5108 | inactive |
| KIF26B (GeneID 55083) | 0.44 | 6464 | inactive |
| KCNH5 (GeneID 27133) | 0.29 | 5960 | inactive |
| RXFP3 (GeneID 51289) | -2.05 | 7184 | active |
| NINJ2 (GeneID 4815) | -0.66 | 5844 | inactive |
| CCNA1 (GeneID 8900) | 0.08 | 5827 | inactive |
| IBTK (GeneID 25998) | -1.59 | 4588 | inactive |
| NIPAL1 (GeneID 152519) | -0.13 | 6173 | inactive |
| CLCNKA (GeneID 1187) | 0.57 | 5970 | inactive |
| PLEK2 (GeneID 26499) | -0.26 | 7433 | inactive |
| HOXB2 (GeneID 3212) | 1.04 | 6900 | inactive |
| CYSLTR1 (GeneID 10800) | -0.91 | 7562 | inactive |
| XDH (GeneID 7498) | 0.8 | 5930 | inactive |
| MGARP (GeneID 84709) | 0.54 | 6388 | inactive |
